# Measurements from patent publication US6528303.
# These are yes or no findings as the source states them, for the method shown. Some results given as binding are weak or reduced against the parent protein; the word gives no strength.
# T1: rat NPY-Y5 receptor (rat) (UniProt Q63634)
# T1 sequence: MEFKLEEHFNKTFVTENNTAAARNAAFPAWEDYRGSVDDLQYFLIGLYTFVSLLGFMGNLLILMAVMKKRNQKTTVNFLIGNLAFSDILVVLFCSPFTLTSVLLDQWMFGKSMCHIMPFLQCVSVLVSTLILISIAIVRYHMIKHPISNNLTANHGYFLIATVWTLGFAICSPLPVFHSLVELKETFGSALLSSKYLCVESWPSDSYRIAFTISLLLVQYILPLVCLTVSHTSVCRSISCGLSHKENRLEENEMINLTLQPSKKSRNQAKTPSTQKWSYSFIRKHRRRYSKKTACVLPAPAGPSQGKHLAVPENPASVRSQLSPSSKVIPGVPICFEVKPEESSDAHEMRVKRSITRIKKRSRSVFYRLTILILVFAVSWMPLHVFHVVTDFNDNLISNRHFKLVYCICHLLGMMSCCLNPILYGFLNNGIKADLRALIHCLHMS
# Target: T1, rat NPY-Y5 receptor (rat)
# Assay: NPY binding analysis of CHO cell lines stably expressing the rat Y5 receptor
binder,measurement,value
"APLEPVYPGDNATPEQMAQYAADLRRYINMLTRPRY (peptide, UniProt P01298 30-65, looked up) [PP]",binding,binds
